# Results taken from patent US20190161754A1, “FLUORESCENT BIOSENSOR FOR 2', 3'-CGAMP” (The Regents of the University of California, priority 2016, published 2019).
# By UniProt entry, the sequences of proteins in these tests, tags left out.
# UniProt Q8N884, whole entry: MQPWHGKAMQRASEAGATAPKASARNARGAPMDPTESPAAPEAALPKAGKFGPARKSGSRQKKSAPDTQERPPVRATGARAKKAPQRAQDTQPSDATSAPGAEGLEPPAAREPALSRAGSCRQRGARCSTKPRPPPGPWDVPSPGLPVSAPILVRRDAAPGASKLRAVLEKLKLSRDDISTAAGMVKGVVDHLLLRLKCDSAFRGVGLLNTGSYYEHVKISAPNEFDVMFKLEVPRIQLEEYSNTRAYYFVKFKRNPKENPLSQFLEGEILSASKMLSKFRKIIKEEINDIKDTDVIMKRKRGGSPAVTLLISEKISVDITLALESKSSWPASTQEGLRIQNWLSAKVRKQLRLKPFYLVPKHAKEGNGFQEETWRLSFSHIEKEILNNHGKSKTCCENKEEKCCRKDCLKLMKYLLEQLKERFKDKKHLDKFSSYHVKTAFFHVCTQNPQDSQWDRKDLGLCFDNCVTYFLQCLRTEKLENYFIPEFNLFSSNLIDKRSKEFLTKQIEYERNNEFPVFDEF
# For at least one compound, name, drawing or mass did not settle the structure.
# Biological target: cGAS (Homo sapiens, UniProt Q8N884)
# Test: Thin-layer chromatography based (radiolabeled TLC) cGAS activity assay with DNA intercalators
# Format: biochemical
# Parameters: DNA-dependent human cGAS activity was assayed with recombinant full-length cGAS and HT-DNA; implied by Ni-NTA capture and imidazole elution; made in house; host or cells: BL21-RIL DE3 E. coli
# Details: 100 μM concentration
# Description: Quinacrine intercalation can lengthen the B-form DNA helix but otherwise would not grossly alter conformation (Hossain et al., (2008). DNA intercalation by quinacrine and methylene blue: a comparative binding and thermodynamic characterization study. DNA Cell Biol 27, 81-90). To support the proposed mechanism of action, other DNA intercalators were tested for effects on cGAS activity. The radiolabeled TLC assay was employed in order to avoid possible complications in data interpretation from compounds interacting with the RNA biosensor. […] Importantly, the enzyme-independent effect of compounds on fluorescence of the RNA biosensors can easily be analyzed in control reactions, which allows one to distinguish compounds in the screen that likely interact with the DNA instead of the enzyme directly.
# DNA-dependent human cGAS activity was assayed with recombinant full-length cGAS and HT-DNA (Sigma-Aldrich, St Louis, Mo.). cGAS (estimated final concentration 1.5 μM) or equal volumes of water were incubated with HT-DNA (final concentration 0.1 mg/ml) in the presence of 250 μM ATP and GTP and [a-32P] ATP or GTP (˜30 nM) as indicated. All reactions included 100 mM NaCl, 10 mM MgCl2, 40 mM Tris-HCl (pH 7.5), and reactions were incubated at 37° C. for 1.5 hr. […] Plates were dried and radiolabeled products were detected with a phosphor screen and the Typhoon phosphorimager (GE Life Sciences).
structure (smiles),measurement,value
CC[n+]1c(-c2ccccc2)c2cc(N)ccc2c2ccc(N)cc21 [ethidium bromide],inhibition of cGAS activity,fully inhibited
